Some of the results follow. Most values come without repeats; read them as rough.
Key:
Assay in all cases: reduction in cell viability relative to untreated/vehicle; higher = more growth inhibition
Conditions in all cases: 200 nM; 72 h
[1] = system: M229P (parental melanoma line)
[2] = system: M229R (matched melanoma line resistant to BRAF inhibitors)
[3] = system: M238P (parental melanoma line)
[4] = system: M238R (matched melanoma line resistant to BRAF inhibitors)
[5] = system: M249P (parental melanoma line)
[6] = system: M249R (matched melanoma line resistant to BRAF inhibitors)
[7] = system: UACC62P (parental melanoma line)
[8] = system: UACC62R (matched melanoma line resistant to BRAF inhibitors)

| SMILES | reduction in cell viability [1] | reduction in cell viability [2] | reduction in cell viability [3] | reduction in cell viability [4] | reduction in cell viability [5] | reduction in cell viability [6] | reduction in cell viability [7] | reduction in cell viability [8] |
| --- | --- | --- | --- | --- | --- | --- | --- | --- |
| COc1ccc(-c2ccc3c(N4CCOCC4)nc(N4C[C@@H](C)O[C@@H](C)C4)nc3n2)cc1CO | 6.79% | 9.77% | 3.22% | 17.3% | 8.95% | 12.1% | 30.8% | 14.4% |
| Nc1ccn([C@@H]2O[C@H](CO)[C@@H](O)[C@@H]2O)c(=O)n1 [Cytarabine] | < 0% | 14.9% | 51.7% | 26.4% | 11% | 17.5% | < 0% | 83.4% |
| Cc1nc(N)sc1-c1ccnc(Nc2ccc(N3CCOCC3)cc2)n1 | < 0% | < 0% | < 0% | < 0% | < 0% | < 0% | < 0% | 7.38% |
| CCOC(=O)C1=C(N)Oc2ccc(Br)cc2C1C(C#N)C(=O)OCC (centres undefined) | < 0% | < 0% | < 0% | < 0% | < 0% | < 0% | < 0% | < 0% |
| O=C(O)C1=N[C@H](C(=O)O)CC(/C=C/N2c3cc(O)c(O[C@@H]4O[C@H](CO)[C@@H](O)[C@H](O)[C@H]4O)cc3C[C@H]2C(=O)O)=C1 [Betanin] | < 0% | < 0% | < 0% | < 0% | < 0% | < 0% | < 0% | < 0% |
| CNC[C@H](O)[C@@H](O)[C@H](O)[C@H](O)CO [Meglumine] | < 0% | < 0% | < 0% | < 0% | < 0% | < 0% | < 0% | < 0% |
| O=C(/C=C/C=C/c1ccc2c(c1)OCO2)N1CCCCC1 [Piperine] | < 0% | < 0% | < 0% | < 0% | < 0% | < 0% | < 0% | < 0% |
| O=C(O)c1ccc(-n2nc(-c3ccccc3O)nc2-c2ccccc2O)cc1 [Deferasirox] | < 0% | < 0% | < 0% | < 0% | < 0% | < 0% | < 0% | < 0% |
| CCC(C)SSc1ncc[nH]1 (centres undefined) | < 0% | 13.8% | < 0% | < 0% | < 0% | < 0% | < 0% | < 0% |
| CC#C[C@]1(O)CC[C@H]2[C@@H]3CCC4=CC(=O)CCC4=C3[C@@H](c3ccc(N(C)C)cc3)C[C@@]21C [Mifepristone] | < 0% | 1.49% | < 0% | < 0% | < 0% | < 0% | < 0% | < 0% |
| CC(C)C[C@H](NC(=O)[C@@H](NC(=O)c1cccc(-c2ccccc2)n1)[C@@H](C)O)B(O)O [Delanzomib] | 90.9% | 83.6% | 89.6% | 92.6% | 91.6% | 90.5% | 89.4% | 84.8% |
| Cc1cc(SCc2sc(-c3ccc(C(F)(F)F)cc3)nc2C)ccc1OCC(=O)O | < 0% | < 0% | < 0% | < 0% | < 0% | < 0% | < 0% | < 0% |
| CN(Cc1cnc2nc(N)nc(N)c2n1)c1ccc(C(=O)N[C@@H](CCC(=O)O)C(=O)O)cc1 [Methotrexate] | 52.9% | 59.2% | 39.4% | < 0% | 45.6% | 26.9% | 82.3% | 74.2% |
| CCN1CCCC1CNC(=O)c1cc(S(=O)(=O)CC)c(N)cc1OC (centres undefined) [Amisulpride] | < 0% | < 0% | < 0% | < 0% | < 0% | < 0% | < 0% | < 0% |
| NS(=O)(=O)c1cc2c(cc1Cl)NC(C(Cl)Cl)NS2(=O)=O (centres undefined) [Trichlormethiazide] | < 0% | < 0% | < 0% | < 0% | < 0% | < 0% | < 0% | < 0% |
| CN(C)CCOc1ccc(/C(=C(/CCCl)c2ccccc2)c2ccccc2)cc1 [Toremifene] | < 0% | < 0% | < 0% | < 0% | < 0% | < 0% | < 0% | < 0% |
| COc1cccc([C@@H](C)NCCCc2ccccc2Cl)c1 | < 0% | < 0% | < 0% | < 0% | < 0% | < 0% | < 0% | 5.51% |
| C[C@H]1COc2c(N3CCN(C)CC3)c(F)cc3c(=O)c(C(=O)O)cn1c23 [Levofloxacin] | < 0% | < 0% | 2.75% | < 0% | < 0% | < 0% | 5.08% | < 0% |

Fetched one by one from the entries so far (2):

| SMILES | reduction in cell viability [1] | reduction in cell viability [2] | reduction in cell viability [3] | reduction in cell viability [4] | reduction in cell viability [5] | reduction in cell viability [6] | reduction in cell viability [7] | reduction in cell viability [8] |
| --- | --- | --- | --- | --- | --- | --- | --- | --- |
| COc1ccc(-c2ccc3c(N4CCOCC4)nc(N4C[C@@H](C)O[C@@H](C)C4)nc3n2)cc1CO | 6.79% | 9.77% | 3.22% | 17.3% | 8.95% | 12.1% | 30.8% | 14.4% |
| CCOC(=O)C1=C(N)Oc2ccc(Br)cc2C1C(C#N)C(=O)OCC (centres undefined) | < 0% | < 0% | < 0% | < 0% | < 0% | < 0% | < 0% | < 0% |

From the supplement of paper PMC9015667
